Measured values reported in US6734203B2, “Fused imidazolium derivatives” (priority 2000, dated 2004).
Some entries share one result that the patent states for a list of compounds.

Test system: Melanoma A375 cells
Assay: In vivo tumor growth inhibition test (A375 xenograft)
Parameters: species or system male Balb/c nude mice
Details: dose of 0.3 or 1 mg/kg, intravenously once a day for 2 weeks, A375 xenograft in nude mice

| SMILES | inhibition of tumor growth compared to the control group [%] |
| --- | --- |
| COCCNC1=C(N(Cc2ccncc2)C(C)=O)C(=O)c2ccccc2C1=O [Example 4, N-[3-(2-methoxyethyl)amino-1,4-dihydro-1,4-dioxo-2-naphthalenyl]-N-(4-pyridylmethyl)acetamide] | ≥ 50 |
| COCCN(C(C)=O)C1=C(NCc2ccncc2)C(=O)c2ccccc2C1=O [Example 37, N-(2-methoxyethyl)-N-[3-(4-pyridylmethyl)amino-1,4-dihydro-1,4-dioxo-2-naphthalenyl]acetamide] | ≥ 50 |
